# Measurements from PubChem BioAssay AID493014 (National Center for Advancing Translational Sciences (NCATS), 2011).
# The list shows a part of the results. Further columns of the screen follow, without active or inactive calls. The list favours compounds with an active or inconclusive main result. Words in brackets tell the shape of the fitted curve; partial curves, single points and poor fits give uncertain potencies.
# Experiment: qHTS Assay to Find Inhibitors of Chronic Active B-Cell Receptor Signaling
# Details: ABC-DLBCL IkBa-CBG/CBR reporter, luminescence ratio (green luciferase fused to IkBa over red control in TMD8 lymphoma cells), 4 h
# How it was run: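 Doxycycline induced both beetle luciferases in TMD8 lymphoma cells; IKK-driven degradation limits the IkappaBalpha-fused green signal, while red luminescence normalises for cell number and nonspecific effects. Compounds tested up to 46 uM, 4 hrs.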
# [1] = measured here: CBR red luminescence, cell number
# [2] = measured here: IkBa-CBG green luminescence
Compound,AC50 [1],AC50 [2]
CCOC(=O)N1CCN(C(=O)CSCC(=O)Nc2nc(-c3cccs3)cs2)CC1,"9.2 µM [falling, partial curve, poor fit]",
O=C(c1ccc(Cl)cc1)N1N=CCC1(O)c1ccc(Cl)cc1 (configuration not stated),"12.6 µM [falling, partial curve]",
O=[N+]([O-])c1ccc(/C=C/c2ccc3cccc([N+](=O)[O-])c3n2)cc1,"2.31 µM [rising, full curve]",
O=c1nc(/C=C/c2cc([N+](=O)[O-])ccc2Cl)cc(C(F)(F)F)[nH]1,"0.259 µM [falling, full curve, poor fit]",
CCOc1ccc(NC(=O)CSc2n[nH]c(N)n2)c([N+](=O)[O-])c1,"18.4 µM [rising, partial curve, poor fit]",
CC(=O)c1c(-c2ccccc2)[nH]c2ccccc12,"20 µM [falling, partial curve, poor fit]",
Cc1ccc(/C=C2/C(=O)N=C(N)N2C)s1,"10.3 µM [rising, partial curve, poor fit]",
Fc1ccc(CN2CCN(C(=S)NCCc3ccccc3)CC2)c(Cl)c1,"35.5 µM [falling, single point]",
COc1ccc(C(=O)Nc2cccc(NC(=O)c3cccs3)c2)cc1,"2.82 µM [falling, partial curve]",
Nc1nc(SCC(=O)N2CCc3ccccc3C2)[nH]c(=O)c1-c1ccccc1,"1.84 µM [falling, full curve, poor fit]",
Cc1occc1C(=O)OCC(=O)Nc1ccc(F)cc1,"14.1 µM [falling, partial curve]",
CCOC(=O)c1c(C)n(C)c2ccc(OC)c(NC(=O)CN3CCN(C4CCCCC4)CC3)c12,"4.11 µM [rising, partial curve]",
Cc1c(NC(=O)c2ccc3c(c2)OCO3)cccc1-c1nc2ccccc2o1,"6.31 µM [falling, full curve]",
CCCCCCCSc1nc(N)cc(=O)[nH]1,"7.31 µM [rising, partial curve, poor fit]",
Cc1ccc(C(=O)N2CCCC(c3ccc(Cl)cc3)=N2)cc1,"1.41 µM [falling, full curve]",
O=C(CSc1nc2ncc(Cl)cc2[nH]1)c1c[nH]c2ccccc12,"35.5 µM [falling, single point]","35.5 µM [rising, partial curve, poor fit]"
Cc1ccc(S(=O)(=O)c2nc(S(=O)(=O)c3ccccc3)sc2N2CCN(CCO)CC2)cc1,"28.2 µM [falling, single point]",
CC(=O)Cc1c(C(=O)O)c(C)nn1-c1ccccc1,"15.8 µM [rising, single point]",
O=C(CSCc1ccc([N+](=O)[O-])cc1)Nc1ccc(S(=O)(=O)N2CCCCCC2)cc1,"11.6 µM [falling, partial curve, poor fit]",
CN(C(=O)CSc1nncc2ccccc12)c1ccccc1,"16.4 µM [falling, single point]",
CN=C1C=C/C(=N/N=c2\ccn(O)cc2C)C=C1C,"22.4 µM [rising, partial curve]",

Compound,AC50 [1],AC50 [2]
C=CCNC(=S)NNC(=O)C(CCCC)CC(C)(C)O (configuration not stated),"32.6 µM [falling, single point]","29.1 µM [falling, single point]"
O=C(NCc1ccco1)c1ccc2c(c1)N(Cc1ccccc1)CCS2,"35.5 µM [falling, single point]",
O=C(Nc1nccs1)c1cn2ccccc2n1,"1.58 µM [falling, full curve, poor fit]",
COc1cccc2sc(Nc3nc(-c4ccccn4)cs3)nc12,"5.62 µM [rising, partial curve, poor fit]","5.62 µM [falling, single point]"
CC(=O)N1CCN(c2ccc(NC(=O)c3ccccc3Br)cc2Cl)CC1,"4.11 µM [falling, partial curve, poor fit]",
CCOC(=O)[C@@H]1[C@H]2COc3ccc(Br)cc3[C@@H]2N2C(=O)N(c3cccc(F)c3)C(=O)[C@@]12C,"35.5 µM [falling, single point]",
O=C(CSc1nc2ccccc2c(=O)n1-c1ccccc1)N1CCCC1,"16.4 µM [rising, single point]",
COCCNC(=O)/C(C#N)=C\c1ccc(CNS(=O)(=O)c2ccc(C)cc2)o1,"0.0891 µM [falling, full curve, poor fit]",
CC(C)=CCCC(C)NC(=O)NC1CCCCC1 (configuration not stated),"10.3 µM [rising, partial curve, poor fit]",
Cc1cc(C)cc(N=Cc2[nH]c3ccc(Br)c(Cl)c3c2O)c1,"20.6 µM [falling, partial curve, poor fit]",
O=C(Nc1ccsc1C(=O)O)c1ccc(Cl)cc1,"0.891 µM [falling, full curve]",
O=C(Nc1nnc(-c2ccc(Cl)cc2)o1)C1CCCCC1,"31.6 µM [rising, single point]",
Cc1cc(SCC(=O)Nc2cccc(S(=O)(=O)NC3=NCCCCC3)c2)c(C)cc1Br,"16.4 µM [falling, partial curve]",
Cc1nc(NC(=O)CCc2ccccc2)ccc1Br,"7.31 µM [falling, partial curve, poor fit]",
CN(Cc1ccccc1F)C(=O)c1sccc1-c1ccccc1,"35.5 µM [falling, partial curve, poor fit]",
NCCCn1c(C(=O)c2ccc(Cl)cc2)c2ccc(C(F)(F)F)cc2[n+]1[O-],"25.9 µM [falling, single point]",
CCC1(CC)NC(=O)NC1=O,"6.51 µM [falling, single point]",
Cc1cc(C(=O)N/N=C/c2cccs2)n[nH]1,"11.2 µM [falling, partial curve]",
N#C/C(=C(/O)C(Cl)c1ccccc1)c1nc2ccccc2s1 (configuration not stated),"4.11 µM [falling, partial curve, poor fit]",
O=C(COc1ccc(S(=O)(=O)NC2CCCCC2)cc1)N1CCN(c2cccc(Cl)c2)CC1,"0.461 µM [falling, single point]",
Cc1cc(=O)oc(C)c1C(=O)NC12CC3CC(CC(C3)C1)C2,"0.1 µM [rising, full curve]",

Compound,AC50 [1],AC50 [2]
O=C(Nc1ccc(N2CCCCC2)cc1)c1ccc(F)cc1F,"10 µM [falling, partial curve, poor fit]",
Cc1cccc(NC(=O)CSc2nc3c(oc4ccccc43)c(=O)n2-c2ccccc2)c1,"16.4 µM [rising, partial curve]",
Cc1ccc(C(=O)/C=C2\NCC(C)NC2=O)cc1 (configuration not stated),"15.8 µM [falling, partial curve]",
Cc1nn(C)c(C)c1/C=N/NC(=O)CCn1cc([N+](=O)[O-])cn1,"0.326 µM [rising, full curve, poor fit]",
CC(Oc1ccccc1)C(=O)Nc1cccc(NC(=O)c2ccco2)c1 (configuration not stated),"2.82 µM [falling, partial curve]",
CC(C)=C1C2CCC1C1C(=O)N(NC(=O)COc3ccc(Cl)c(C)c3)C(=O)C21 (configuration not stated),"4.61 µM [falling, single point]",
Cc1ccn2cc(-c3cc4ccccc4oc3=O)nc2c1,"1.78 µM [falling, full curve]",
O=C1S/C(=C\c2cccs2)C(=O)N1c1ccc(O)cc1,"11.2 µM [falling, partial curve]",
O=C(Nc1cccnc1)c1cc(-c2cccs2)on1,"3.55 µM [falling, partial curve, poor fit]",
COc1ccc2nc(N3C(=O)C(O)=C(C(=O)c4ccco4)C3c3ccc(C)o3)sc2c1 (configuration not stated),"3.26 µM [rising, single point]",
COc1ccc(/C=C/C(=O)Nc2cccc(N3CCOCC3)c2)cc1OC,"20.6 µM [falling, partial curve, poor fit]",
CCCCOc1ccc(C(=O)NNC(=O)C2C3C=CC(C3)C2C(=O)O)cc1 (configuration not stated),"2.24 µM [falling, full curve]",
COc1cc(C2Nc3ccccc3C(=O)N2c2ccc(Cl)cc2)c(Cl)cc1OCC(=O)O (configuration not stated),"2.59 µM [rising, full curve]","16.4 µM [falling, partial curve]"
Cc1ccccc1C1CC(=O)NC2=C1C(=O)CCC2 (configuration not stated),"17.8 µM [falling, single point]",
CC12CCC(=O)N1C(C(=O)Nc1ccc(F)c(Cl)c1)CS2 (configuration not stated),"18.4 µM [falling, single point]",
CCCOc1ccccc1N/C(=N/c1nc(C)cc(C)n1)NC(=O)Nc1ccc(Cl)cc1,"2.24 µM [rising, full curve, poor fit]",
CCCCN(C(=O)c1cccc2c(=O)c(C)c(-c3ccccc3)oc12)c1ccccc1,"25.9 µM [falling, partial curve, poor fit]",
COc1ccc(NC(=O)c2cc(-c3ccccc3OC)on2)cc1,,"35.5 µM [falling, single point]"
Cc1cccc(Cn2c(N3CCc4ccccc4C3)nc3c2c(=O)[nH]c(=O)n3C)c1,"29.1 µM [rising, single point]",
O=C(Nc1ccc(N2CCOCC2)cc1)c1cnccn1,"7.94 µM [falling, partial curve]",
CN(C(=O)COC(=O)C(Cc1ccccc1)NC(=O)c1ccccc1)c1ccccc1 (configuration not stated),"2.31 µM [falling, partial curve, poor fit]",
